Experimental data published in paper PMC12173946.
These are yes or no findings as the source states them, for the method shown. In cells and extracts the contact can be indirect. A result given as binding can be weak or reduced; the word gives no strength.

Biological target: T1, Dok1–Clover (UniProt Q99704)
T1 sequence: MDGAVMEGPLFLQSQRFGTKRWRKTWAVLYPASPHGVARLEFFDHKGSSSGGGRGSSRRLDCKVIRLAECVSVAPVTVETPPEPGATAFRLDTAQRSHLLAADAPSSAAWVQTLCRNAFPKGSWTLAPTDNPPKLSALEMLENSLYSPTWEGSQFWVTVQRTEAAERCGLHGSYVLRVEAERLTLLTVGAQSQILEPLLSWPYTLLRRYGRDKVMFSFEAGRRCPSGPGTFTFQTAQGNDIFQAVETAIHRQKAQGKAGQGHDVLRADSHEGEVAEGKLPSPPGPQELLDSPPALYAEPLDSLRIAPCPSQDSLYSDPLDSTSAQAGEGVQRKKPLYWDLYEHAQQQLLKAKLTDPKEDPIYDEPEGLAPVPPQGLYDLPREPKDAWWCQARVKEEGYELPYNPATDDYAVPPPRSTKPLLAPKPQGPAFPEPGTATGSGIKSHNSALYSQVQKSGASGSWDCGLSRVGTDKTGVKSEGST
Experiment: FRET or BRET; intermolecular FLIM–FRET of tagged protein pairs (Clover or mEmerald donor, mRFP or mScarlet acceptor); mScarlet alone with the donor-tagged protein as negative control

Substance: RFP-tagged Cofilin WT
- binding: binds
